# Assay results reported in the supplement of paper PMC12819154, “High-throughput peptide-centric local stability assay extends protein–ligand identification to membrane proteins, tissues and bacteria” (Nature Structural & Molecular Biology, 2025).
# Sequences of proteins named here, by UniProt entry; tags and fusion partners are left off. A change or cut given only in a name is not applied to a line headed by its entry.
# UniProt Q8K358: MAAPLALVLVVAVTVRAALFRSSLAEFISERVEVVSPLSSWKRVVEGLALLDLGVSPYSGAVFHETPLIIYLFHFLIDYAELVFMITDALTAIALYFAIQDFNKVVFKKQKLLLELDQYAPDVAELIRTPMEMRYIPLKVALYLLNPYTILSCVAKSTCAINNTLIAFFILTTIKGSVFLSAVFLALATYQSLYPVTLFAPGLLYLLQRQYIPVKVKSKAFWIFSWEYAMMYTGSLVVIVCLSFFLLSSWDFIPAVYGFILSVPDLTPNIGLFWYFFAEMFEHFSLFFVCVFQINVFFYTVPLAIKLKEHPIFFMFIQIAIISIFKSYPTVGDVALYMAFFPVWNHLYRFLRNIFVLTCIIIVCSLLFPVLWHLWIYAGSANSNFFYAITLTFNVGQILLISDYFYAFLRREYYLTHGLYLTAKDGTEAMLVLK
# UniProt Q8R1U1: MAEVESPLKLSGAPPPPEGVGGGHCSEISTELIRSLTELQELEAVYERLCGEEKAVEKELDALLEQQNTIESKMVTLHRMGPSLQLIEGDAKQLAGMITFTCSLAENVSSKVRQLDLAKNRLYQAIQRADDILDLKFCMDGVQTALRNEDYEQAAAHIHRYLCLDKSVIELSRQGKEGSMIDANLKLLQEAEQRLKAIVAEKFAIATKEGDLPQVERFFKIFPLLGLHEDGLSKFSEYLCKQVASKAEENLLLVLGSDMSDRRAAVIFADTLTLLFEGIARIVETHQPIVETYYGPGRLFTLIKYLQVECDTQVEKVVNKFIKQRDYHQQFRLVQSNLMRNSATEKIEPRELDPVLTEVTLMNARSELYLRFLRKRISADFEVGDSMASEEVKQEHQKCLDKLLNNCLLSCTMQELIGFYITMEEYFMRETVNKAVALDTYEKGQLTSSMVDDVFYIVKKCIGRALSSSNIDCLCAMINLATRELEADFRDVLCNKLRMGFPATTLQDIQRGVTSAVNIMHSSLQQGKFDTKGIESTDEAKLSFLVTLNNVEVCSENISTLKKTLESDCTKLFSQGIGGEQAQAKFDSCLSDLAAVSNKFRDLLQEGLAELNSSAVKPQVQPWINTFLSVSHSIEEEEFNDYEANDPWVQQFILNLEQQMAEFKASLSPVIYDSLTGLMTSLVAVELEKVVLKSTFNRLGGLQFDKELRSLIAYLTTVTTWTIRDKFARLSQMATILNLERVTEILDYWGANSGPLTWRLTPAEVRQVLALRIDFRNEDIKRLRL
# UniProt Q8R1N4: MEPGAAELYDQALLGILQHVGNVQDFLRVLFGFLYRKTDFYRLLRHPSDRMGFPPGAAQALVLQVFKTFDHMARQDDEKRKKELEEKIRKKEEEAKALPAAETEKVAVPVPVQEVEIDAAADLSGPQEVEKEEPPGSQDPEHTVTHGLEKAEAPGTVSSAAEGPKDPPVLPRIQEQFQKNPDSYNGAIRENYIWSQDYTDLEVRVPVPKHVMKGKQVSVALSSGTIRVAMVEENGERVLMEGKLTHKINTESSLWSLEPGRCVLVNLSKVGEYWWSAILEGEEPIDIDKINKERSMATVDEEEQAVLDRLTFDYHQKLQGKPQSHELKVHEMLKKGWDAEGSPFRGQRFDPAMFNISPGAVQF
# UniProt Q8K2C9: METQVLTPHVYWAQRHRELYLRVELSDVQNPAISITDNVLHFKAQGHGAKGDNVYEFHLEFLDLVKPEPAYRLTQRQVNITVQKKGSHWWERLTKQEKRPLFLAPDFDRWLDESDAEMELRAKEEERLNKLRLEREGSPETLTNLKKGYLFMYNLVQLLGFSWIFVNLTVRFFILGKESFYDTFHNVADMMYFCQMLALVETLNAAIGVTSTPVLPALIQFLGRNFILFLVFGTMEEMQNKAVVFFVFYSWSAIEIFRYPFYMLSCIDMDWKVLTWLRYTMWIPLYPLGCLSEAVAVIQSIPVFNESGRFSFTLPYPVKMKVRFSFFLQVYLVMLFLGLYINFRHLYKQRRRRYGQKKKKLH
# UniProt Q8R086: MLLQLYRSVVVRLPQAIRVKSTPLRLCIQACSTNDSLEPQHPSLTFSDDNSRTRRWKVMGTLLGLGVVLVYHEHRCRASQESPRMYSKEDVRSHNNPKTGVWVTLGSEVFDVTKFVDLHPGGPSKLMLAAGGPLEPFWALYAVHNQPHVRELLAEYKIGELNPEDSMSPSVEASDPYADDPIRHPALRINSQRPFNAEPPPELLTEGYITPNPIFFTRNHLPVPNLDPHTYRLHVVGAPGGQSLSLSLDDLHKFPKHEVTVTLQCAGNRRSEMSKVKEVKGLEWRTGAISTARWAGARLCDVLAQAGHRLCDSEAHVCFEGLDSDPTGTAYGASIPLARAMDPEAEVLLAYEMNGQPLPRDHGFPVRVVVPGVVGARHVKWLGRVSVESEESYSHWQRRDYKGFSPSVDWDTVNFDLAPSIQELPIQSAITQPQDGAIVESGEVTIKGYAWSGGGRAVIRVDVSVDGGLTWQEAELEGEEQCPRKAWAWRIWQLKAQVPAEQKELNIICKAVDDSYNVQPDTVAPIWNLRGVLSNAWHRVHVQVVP
# UniProt Q8K2F8: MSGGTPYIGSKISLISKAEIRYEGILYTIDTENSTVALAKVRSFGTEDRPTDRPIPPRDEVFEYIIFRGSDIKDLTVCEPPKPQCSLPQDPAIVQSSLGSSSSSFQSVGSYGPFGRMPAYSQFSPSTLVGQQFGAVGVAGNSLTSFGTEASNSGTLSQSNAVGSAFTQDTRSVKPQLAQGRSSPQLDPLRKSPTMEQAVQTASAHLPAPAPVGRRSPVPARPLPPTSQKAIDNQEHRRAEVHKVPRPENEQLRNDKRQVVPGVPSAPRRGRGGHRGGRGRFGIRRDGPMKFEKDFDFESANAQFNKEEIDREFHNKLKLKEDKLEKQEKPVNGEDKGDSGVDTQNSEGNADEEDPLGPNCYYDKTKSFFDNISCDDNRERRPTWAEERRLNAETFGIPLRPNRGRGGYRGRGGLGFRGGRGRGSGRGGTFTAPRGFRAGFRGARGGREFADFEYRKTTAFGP
# The other results are listed elsewhere or left out. Most entries show no effect beyond the scatter of the controls.
# Compound: CN[C@@H]1C[C@H]2O[C@@](C)([C@@H]1OC)n1c3ccccc3c3c4c(c5c6ccccc6n2c5c31)C(=O)NC4 [staurosporine]
# Experiment: log2 fold change of tryptic peptide abundance, ligand vs vehicle (limited proteolysis) (log2 ratio); higher = more trypsin-susceptible (destabilized)
# Conditions: ligand concentration: 20 uM; sample: mouse liver crude lysate; replicate design: treated separately
row,Target,log2 fold change
1,"UniProt Q8K358 (peptide sequence: DGTEAMLVLK, peptide start residue: 425)",-0.0755
2,"UniProt Q8R1U1 (peptide sequence: LGGLQFDKELR, peptide start residue: 699)",-0.425
3,"UniProt Q8R1N4 (peptide sequence: TFDHMAR, peptide start residue: 68)",-0.234
4,"UniProt Q8K2C9 (peptide sequence: RPLFLAPDFDR, peptide start residue: 99)",-0.129
5,"UniProt Q8R086 (peptide sequence: VVVPGVVGAR, peptide start residue: 368)",-0.217
6,"UniProt Q8K2F8 (peptide sequence: EEIDREFHNK, peptide start residue: 307)",-0.471
